Experimental data as given in US20030194373A1 (priority 1998, published 2003).

Assay: general procedure: Fmoc solid-phase peptide synthesis; preloaded 1,3-diaminopropyltrityl resin; 0.50 M 14BTU/HOBt/DMF with 2.0M DIEA/NMP
Settings: whole synthesis, scale 0.25 mmol

Q: For dmG-Ser(Bu)-Cys(Acm)-Gly-NH-(CH2)3-NH2, which crude mass is on record?
A: 408 mg

Q: And the crude yield?
A: 85.5%
